{"source": "patent US20250144187A1", "about": "“COMBINATION OF HYDROLASES AND ANTI-MICROORGANISM DRUGS AND USES THEREOF” (CENTRE FOR EYE AND VISION RESEARCH LIMITED, priority 2023, published 2025)", "key": {"[1]": {"test_system": "MRSA-infected skin wound", "experiment": "Rat skin infection model, cefdinir/lysozyme", "assay_type": "in vivo, Sprague Dawley (SD) rats", "conditions": "oral cefdinir + lysozyme gauze, 168 hours post-inoculation, vs drug alone and/or control", "method": "16) Rat skin Infection model. […] Others were infected by about 5×10^11 CFU of mid-log phase MRSA from our own collection. Briefly, all rats were firstly pre-depilated by using 10% Na2S to get an uncovered back area of 4 cm×4 cm prior to 24 hours for the anesthetization on rats. Then, the skin of anesthetized rat was removed until fascial region under sterile condition, followed by bacterial infection by spraying 5×10^11 CFU of MRSA suspension on wound (3 cm×3 cm). To collect these bacterial suspensions, mid-log phase MRSA would be collected by centrifugation at 4500 g for 15 minutes washed with PBS for 3 limes and re-suspended in cold PBS to get bacterial suspension with an initial density of about 4.0×10^11 CFU/ml according to pre-experiment. Next, 1.25 ml of bacterial suspensions was inoculated into wound, Normal saline was used to replace bacterial suspension in uninfected group. After 1 hour infection, wound of infected rat was covered by sterile medical gauze. All sterile medical gauzes were 0.2 g/cm^2, which were further covered by two layers of sterile gauzes and fixed by sterile tapes. After that, rats were monitored until they were fully awake, followed by return to their cages. After 24 hours infection, these sterile medical gauzes were replaced with new sterile medical gauzes. […] About 4-μm sections was analyzed by using the hematoxylin and eosin (H-E) staining. […]"}, "[2]": {"test_system": "MRSA biofilm", "experiment": "Biofilm crystal violet assay, cefdinir/lysozyme", "assay_type": "cell-based, Staphylococcus aureus", "conditions": "0.5 μg/ml cefdinir + 0.5 mg/ml lysozyme"}, "[3]": {"test_system": "MRSA", "experiment": "Check board broth micro-dilution assay, tedizolid phosphate with lysozyme", "assay_type": "cell-based, Staphylococcus aureus", "conditions": "pro-drug combined with lysozyme (FIG. 33, FIG. 41C: MRSA or MRSE)", "method": "2) Check board broth micro-dilution assays. According to standard two-fold dilution method [Sun. H et al., Nat. Commun. 11, 5263 (2020) tedizolid phosphate at different concentrations were added into fresh LB medium (or trypticase soy troth medium with 5% defibrinated horse blood) containing different concentrations of human lysozyme in 96-well plate. Then, 20 μl of 1.0×10^7 CFU/ml logarithmic cultures of MRSA or MRSE were added into each well of the plate and co-incubated overnight. Drug-free LB medium in the absence or presence of bacteria served as background control and growth control group, respectively. […] Thus, there would be a series of FICI values. In most of cases, the lowest one among these values was listed to reflect the best achieving degree of combination therapy. In terms of the lowest FICI, FICI≤0.5, 0.5<FICI<1 or FICI≥1, would indicate the combination has synergy, part synergy or non-synergy effects, respectively."}, "[4]": {"test_system": "MRSE", "experiment": "High-throughput screening of 1953 FDA-approved compounds with human lysozyme", "assay_type": "cell-based, Staphylococcus epidermis", "conditions": "compound 25 μM + 1 mg/ml lysozyme, 24-hour", "method": "(§1) 1) High-throughput screening. According to standard screening method [Zhong. […] Commun. 11, 523 (2020)], 1953 FDA-approved compounds from our drugs library at a fixed concentrations of 25 μM were screened against methicillin-resistant Staphylococcus aureus (MRSA) and Staphylococcus epidermis (a coagulase negative Staphylococci, MRSE), in combination with human lysozyme. Specifically, these compounds were added into bacterial suspensions (1×10^5 CFU/ml, in LB medium) in the absence or presence of 1 mg/ml lysozyme. LB medium without bacteria served as background group. Then, the real-time growth curvet of MRSA were monitored per hour and for 24 hours. Absorbance at 600 am (OD600) of bacterial culture at the time point of 24-hour was also measured. The inhibition ratio (%) was calculated as (ODcontrol−ODsample)/(ODcontrol−ODbackground)×100%. […] Herein, the relative and apparent inhibition ratios indicated the combination effect and potential toxicity of compound, respectively. Synergy effect was defined as the relative inhibition ratio of ≥90%. All assays were performed in triplicate."}, "[5]": {"test_system": "MRSA", "experiment": "High-throughput screening of 1953 FDA-approved compounds with human lysozyme", "assay_type": "cell-based, Staphylococcus aureus", "conditions": "compound 25 μM + 1 mg/ml lysozyme, 24-hour", "method": "as §1"}, "[6]": {"test_system": "MRSA ocular infection", "experiment": "Ocular infection model, tedizolid phosphate/lysozyme", "assay_type": "in vivo, C57BL/6 mice", "conditions": "mono-therapy groups, 48-hr post-inoculation", "excerpt": "20) Ocular infection model. According to the reported method [Zhang, Z et al., Curt. Protoc, mouse Bot 7, 55-63 (2017)], 40 C57BL/6, male mice ([…]) were used to evaluate the combination effect in the ocular infection model. Specifically, all mice were divided into 5 groups (4 infected groups and 1 uninfected group, 8 mice per group). Among than, 32 mice in infected groups were infected by slowly inoculating about 2.5×10^7 CFUs of mid-log phase MRSA into each ocular surface. To collect these mid-tog phase ARA, a colony of MRSA cultured in LB-agar plate was firstly picked up and inoculated into fresh LB medium for overnight incubation at 37° C. Then, the overnight culture was diluted (1:300) into fresh LB medium for continuous culture until bacterial OD600 was about 0.6. […] Next, 2.5 μl of bacterial suspensions were slowly inoculated into each ocular surface of anesthetized C57/BL6 mouse on the side of surgical bed. […] After that, they were repeated from the air-anesthetizing room and monitored until they were fully awake, followed by retuned to their cages. […] Then, according to the standard protocol^28, 3 μl of tear fluid was gradient-diluted at 10-fold in 96-well plat to figure out the initial number of viable bacteria in tear fluid according to quantitative grown colony after overnight culture. […]"}}, "note": "For part of these data: At least one read-out could not be matched to a standard name with certainty. For part of these data: At least one compound was matched to its structure with a doubt left. Some entries share one result that the patent states for a list of compounds.", "data": [{"compound": "C=CC1=C(C(=O)O)N2C(=O)[C@@H](NC(=O)/C(=N\\O)c3csc(N)n3)[C@H]2SC1", "note": "[cefdinir, Cefdinir]", "values": [{"measurement": "bacterial load in wound", "setting": "[1]", "result": "significantly reduced"}, {"measurement": "biofilm absorbance at 590 nm, pre-biofilm stage", "setting": "[2]", "result": "biofilm had been absolutely removed"}]}, {"compound": "CN1CCN(c2ccc(N3CC(COP(=O)(O)O)OC3=O)cc2F)C=N1", "note": "(stereo not drawn) [delpazolid phosphate]", "values": [{"measurement": "FICI", "setting": "[3]", "result": "≤ 0.09373"}]}, {"compound": "Cn1nnc(-c2ccc(-c3ccc(N4C[C@H](COP(=O)(O)O)OC4=O)cc3F)cn2)n1", "note": "[tedizolid phosphate, Tedizolid Phosphate]", "values": [{"measurement": "Growth inhibition ratio (mean ± SD, %) MRSE", "setting": "[4]", "result": "above 90%"}, {"measurement": "Growth inhibition ratio (mean ± SD, %) MRSE", "setting": "[4]; listed as Tedizolid Phosphate", "result": "93.14 ± 5.17", "unit": "%"}, {"measurement": "Growth inhibition ratio (mean ± SD, %) MRSA", "setting": "[5]", "result": "above 90%"}, {"measurement": "Growth inhibition ratio (mean ± SD, %) MRSA", "setting": "[5]; listed as Tedizolid Phosphate", "result": "92.61 ± 0.86", "unit": "%"}]}, {"compound": "eperezolid phosphate", "values": [{"measurement": "FICI", "setting": "[3]", "result": "≤ 0.09373"}]}, {"compound": "lysozyme: Human lysozyme (C-type) supplied by Sigma-Aldrich; hydrolase used in combination with the drugs", "values": [{"measurement": "invasion ratios of epithelial cells in tear fluids", "setting": "[6]", "result": "> 60", "unit": "%"}]}]}
